# Test results: PubChem BioAssay AID540256 (National Center for Advancing Translational Sciences (NCATS), 2011)
# In all, about 300,000 compounds went through this assay and about 3,700 (1.2%) were called active. This list was built around the results that the source calls inconclusive (neither active nor inactive); the mix of calls is not that of the screen. Calls come from the whole dose curve; tested in HEK293 cells. Potencies beside an inconclusive call are fits to weak or partial responses and may not hold up.
# Assay: qHTS for Inhibitors of binding or entry into cells for Lassa Virus; note: nearly all actives have a fitted effect of over 50% in size
# Conditions: Lassa virus pseudotype entry inhibition, cell reporter; activity change, negative = inhibition: at 37.9 µM (top of the series) unless noted
# % is set by controls: 0 for no effect and ±100 for the full control effect; potency is the fitted concentration of half-maximal effect.
SMILES,Potency,"activity change, negative = inhibition"
Cc1nn(CCC(=O)NCc2cccc(Br)c2)c(=O)c2nn(-c3ccccc3)c(C)c12,"inconclusive: 11.2 µM [activator, partial curve]",–
O=C(c1ccc(CS(=O)c2ccccc2Cl)o1)N1CCN(c2cccc(C(F)(F)F)c2)CC1 (stereo not given),–,inactive: -12.5% [at 46.1 µM]
CC(C)OCCCn1c(SCC(N)=O)nc2c(sc3ccccc32)c1=O,"inconclusive: 8.91 µM [activator, partial curve, poor fit]",–
Cc1cc(C(=O)COC(=O)Cc2n[nH]c(=O)c3ccccc23)c(C)n1-c1ccc2c(c1)OCO2,"inconclusive: 35.5 µM [inhibitor, single point]",–
O=C(Nc1ccccc1)Nc1cccc2cccnc12,"inconclusive: 14.6 µM [inhibitor, partial curve, poor fit]",–
O=C(Nc1ccc(Cl)c(Cl)c1)c1cc(S(=O)(=O)N2CCN(c3cccc(Cl)c3)CC2)ccc1F,"inconclusive: 35.5 µM [activator, single point]",–
Cc1oc2ncn(CC(C)C)c(=O)c2c1C(=O)Nc1cccc(C(F)(F)F)c1,–,inactive: -13.2% [at 46.1 µM]
COC(=O)c1ccccc1NC(=O)CCc1ccccc1,"inconclusive: 0.708 µM [inhibitor, partial curve, poor fit]",–
C/C(=N\NC(=O)c1n[nH]c2c1CCC2)c1ccco1,"inconclusive: 11.2 µM [inhibitor, single point]",–
COc1ccc(-c2cn(-c3ccc(C)cc3)c(S(=O)(=O)CC(=O)Nc3ccccc3)n2)cc1,"inconclusive: 5.62 µM [activator, single point]",–
CC(=O)Nc1ccc2nc(NC(=O)COc3ccc(C)cc3)sc2c1,"inconclusive: 5.62 µM [inhibitor, single point]",–
Cc1c(Cl)cccc1NC(=S)NCCc1ccc(Cl)cc1,"inconclusive: 35.5 µM [inhibitor, single point]",–
N#Cc1cccc(Nc2c3c(nc4ccccc24)CCC3)c1,"inconclusive: 35.5 µM [inhibitor, single point]",–
CC(NCc1ccccc1Cl)C(O)c1ccccc1 (stereo not given),"inconclusive: 0.231 µM [activator, full curve, poor fit]",–
Cc1cc(C)c(NC(=S)N2CCC(N(C)CC3CCCO3)CC2)c(C)c1 (stereo not given),–,inactive: 11.4%
Cc1ccc(S(=O)(=O)N2CCN(c3cc4c(cc3[N+](=O)[O-])n(C)c(=O)n4C)CC2)cc1,"inconclusive: 32.6 µM [inhibitor, single point]",–
CSc1ccc(C(=O)N2CCc3ccc(NC(=O)c4ccccn4)cc3C2)cc1,"inconclusive: 35.5 µM [inhibitor, single point]",–
COc1cc2c(cc1OC)CN(c1nc(-c3cccnc3)nc3ccccc13)CC2,"inconclusive: 12.6 µM [inhibitor, partial curve, poor fit]",–
O=C(c1ccc2ccccc2c1)C1CCCN(S(=O)(=O)c2cccnc2)C1 (stereo not given),"inconclusive: 11.2 µM [inhibitor, single point]",–
Cc1ccc2cccc(OCC(=O)Nc3cccc(S(=O)(=O)N4CCCC4)c3)c2n1,"inconclusive: 35.5 µM [inhibitor, single point]",–
CCn1cc([N+](=O)[O-])c(C(=O)N2N=C(c3ccc(OC)cc3OC)CC2c2ccccc2O)n1 (stereo not given),"inconclusive: 29.1 µM [inhibitor, single point]",–
Cc1ccc2nc(-c3ccc(NC(=O)CSc4ccccc4)cc3)[nH]c2c1,"inconclusive: 13 µM [inhibitor, partial curve, poor fit]",–

# Retrieved by compound from above, 5 records:
SMILES,Potency,"activity change, negative = inhibition"
CC(NCc1ccccc1Cl)C(O)c1ccccc1 (stereo not given),"inconclusive: 0.231 µM [activator, full curve, poor fit]",–
CCn1cc([N+](=O)[O-])c(C(=O)N2N=C(c3ccc(OC)cc3OC)CC2c2ccccc2O)n1 (stereo not given),"inconclusive: 29.1 µM [inhibitor, single point]",–
O=C(Nc1ccccc1)Nc1cccc2cccnc12,"inconclusive: 14.6 µM [inhibitor, partial curve, poor fit]",–
Cc1nn(CCC(=O)NCc2cccc(Br)c2)c(=O)c2nn(-c3ccccc3)c(C)c12,"inconclusive: 11.2 µM [activator, partial curve]",–
COc1ccc(-c2cn(-c3ccc(C)cc3)c(S(=O)(=O)CC(=O)Nc3ccccc3)n2)cc1,"inconclusive: 5.62 µM [activator, single point]",–

# (next part)

SMILES,Potency,"activity change, negative = inhibition"
CCOC(=O)c1cnc(-c2ccccc2)nc1N,"inconclusive: 4.61 µM [activator, partial curve, poor fit]",–
CCN(CC(=O)NCc1cccs1)C(=O)c1ccc(S(=O)(=O)N(C)c2ccccc2)cc1,"inconclusive: 14.1 µM [inhibitor, single point]",–
CCOC(=O)c1c(NC(=O)CSc2nncs2)sc(C)c1-c1ccccc1,"inconclusive: 14.1 µM [inhibitor, single point]",–
O=c1[nH]c(CN2CCCC2)nc2sc3c(c12)CCC3,–,inactive: 0.654%
CCOC(=O)c1sc(NC(=O)CN(CC(C)C)CC(C)C)c(C(=O)OCC)c1C,–,inactive: -20.2%
O=C(Nc1cc2c3c(c1)CC(=O)N3CCC2)c1ccccc1C(F)(F)F,"inconclusive: 5.62 µM [activator, partial curve, poor fit]",–
CC(=O)OC1CC2(O)C3CCC4CC(O)CCC4(C)C3CCC2(C)C1C1=CC(=O)OC1 (stereo not given),"inconclusive: 0.316 µM [inhibitor, full curve, poor fit]",–
Cc1ccc(-c2nc(-c3cccnc3)sc2CC(=O)Nc2ccc3nc(C)sc3c2)cc1,–,inactive: -24.7%
Cc1cc(C)cc(NC(=O)Nc2ccc(NC(=O)c3ccccc3O)cc2)c1,"inconclusive: 2.51 µM [inhibitor, partial curve, poor fit]",–
CCCCCOC(=O)C1=C(C)NC(=O)NC1c1ccc([N+](=O)[O-])cc1 (stereo not given),"inconclusive: 22.4 µM [inhibitor, single point]",–
CCCCCN1CC(O)=C(c2nc3ccccc3[nH]2)C1=N,–,inactive: 16.2%
CCn1cc(C(=O)NCCCN2CCCC2)c(=O)c2cc(S(=O)(=O)N3CCc4ccccc4C3)ccc21,–,inactive: -19.2%
Cc1nc2ccccc2cc1C(=O)N/N=C/c1cccs1,–,inactive: 3.66%
COc1ccccc1CCNC(=O)C(=O)c1cn(CC(=O)N2CCOCC2)c2ccccc12,–,inactive: 5.55% [at 46.1 µM]
O=C1C2C3C=CC(C3)C2C(=O)N1/N=C/c1cn(Cc2ccc(F)cc2)c2ccccc12 (stereo not given),"inconclusive: 10 µM [inhibitor, partial curve]",–
O=C(O)/C=C/C(=O)Nc1ccc(Cl)c(C(=O)O)c1,–,inactive: 6.42%
O=C(Nc1ccc(F)cc1)OCCN1CCN(Cc2ccccc2)CCC1=O,"inconclusive: 7.05 µM [activator, single point]",–
CCCC(O)(CCC)C(=O)NN(C(=O)CCl)c1cccc(C)c1,"inconclusive: 25.9 µM [inhibitor, single point]",–
O=C1C=CC(=Nc2ccc3c(c2)Cc2cc(F)ccc2-3)O1,"inconclusive: 0.112 µM [activator, full curve, poor fit]",–
CC(C)N1CCC2(CC1)N=C(c1ccc3c(c1)OCO3)CC(c1cc(Cl)ccc1O)N2 (stereo not given),"inconclusive: 22.4 µM [inhibitor, single point]",–
COc1ccc(CN2CCCC(C(=O)c3ccc(Cl)cc3)C2)c(OC)c1 (stereo not given),"inconclusive: 20 µM [inhibitor, partial curve, poor fit]",–
CCOc1ccc(/C=N/Nc2cc(C)nc(N3CCOCC3)n2)cc1,"inconclusive: 3.98 µM [inhibitor, single point]",–

SMILES,Potency,"activity change, negative = inhibition"
Cc1cc(Nc2ccc(Cl)cc2)n2cnnc2n1,"inconclusive: 20 µM [activator, partial curve, poor fit]",–
Cc1csc(N/N=C/c2ccc(O)c([N+](=O)[O-])c2)n1,"inconclusive: 14.1 µM [activator, partial curve, poor fit]",–
Cc1cc2ccccn2c1C(=O)c1ccccc1Br,"inconclusive: 14.1 µM [inhibitor, single point]",–
Cc1ccc(NS(=O)(=O)c2cc(C(=O)Nc3cccc(N(C)S(C)(=O)=O)c3)ccc2C)c(C)c1,"inconclusive: 3.98 µM [inhibitor, partial curve, poor fit]",–
O=C1NC(=Nc2ccc(Cl)cc2)SC1Cc1cc(Cl)ccc1Cl (stereo not given),"inconclusive: 22.4 µM [inhibitor, single point]",–
CCc1ccc(/C=C2\Oc3cc(OS(C)(=O)=O)ccc3C2=O)cc1,"inconclusive: 7.94 µM [inhibitor, partial curve]",–
Cc1ccc(C(=O)OCn2ncc(Cl)c(Cl)c2=O)cc1,active: 23.1 µM,–
Cc1ccc(NC(=O)Cn2cnc3c(oc4ccccc43)c2=O)cc1,"inconclusive: 15.8 µM [inhibitor, single point]",–
CC(C)C(=O)c1cc2c(cc1NC(=O)c1ccccc1F)OCCO2,"inconclusive: 35.5 µM [inhibitor, single point]",–
O=C(CSc1nnc(C2CC2)n1Cc1ccccc1)c1cc2ccccc2o1,"inconclusive: 20.6 µM [inhibitor, partial curve, poor fit]",–
CSc1nc(-c2ccccc2)ccc1C(N)=O,"inconclusive: 29.1 µM [activator, single point]",–
COc1ccc(C(=O)NCc2nnc(SCC(=O)Nc3ccc(F)cc3)n2-c2ccccc2)cc1,"inconclusive: 15.8 µM [inhibitor, single point]",–
CC1CN(C(=O)CCc2cc(C(C)(C)C)c(O)c(C(C)(C)C)c2)CC(C)O1 (stereo not given),–,inactive: -1.35% [at 46.1 µM]
C/C(=N\NC(=O)c1ccc(Br)cc1)c1ccccc1,"inconclusive: 0.708 µM [activator, partial curve, poor fit]",–
CCOc1ccc(OCc2ccc(C(=O)N3CCOCC3)cc2)cc1,–,inactive: 26.8%
Oc1ccc(NCc2ccccc2OCc2ccccc2Cl)cc1,–,inactive: -15.2% [at 46.1 µM]
O=C(CN1CCN(S(=O)(=O)c2ccc3ccccc3c2)CC1)NC(=O)NC1CCCCC1,"inconclusive: 7.94 µM [inhibitor, partial curve, poor fit]",–
O=Cc1ccccc1OCCOc1ccc([N+](=O)[O-])cc1,–,inactive: 17.6%
O=C(O)c1ccc(NC(=O)c2cn(-c3ccccc3)nc2-c2ccccc2)cc1,–,inactive: 15.6% [at 46.1 µM]
CC(NC(=O)c1cccc2ccccc12)c1ccc2c(c1)CCCC2 (stereo not given),"inconclusive: 6.51 µM [inhibitor, partial curve]",–
COc1ccc(Oc2ccc(/C=C/C(=O)c3ccc(O)cc3)cc2[N+](=O)[O-])cc1,active: 12.6 µM,–
